Consider 42 sequences from paper PMC7819943, “Rice protein-binding microarrays: a tool to detect cis-acting elements near promoter regions in rice”.

Sequences of proteins named here, by UniProt entry; tags and fusion partners are left off.
UniProt Q0JBA9, entry or part of it: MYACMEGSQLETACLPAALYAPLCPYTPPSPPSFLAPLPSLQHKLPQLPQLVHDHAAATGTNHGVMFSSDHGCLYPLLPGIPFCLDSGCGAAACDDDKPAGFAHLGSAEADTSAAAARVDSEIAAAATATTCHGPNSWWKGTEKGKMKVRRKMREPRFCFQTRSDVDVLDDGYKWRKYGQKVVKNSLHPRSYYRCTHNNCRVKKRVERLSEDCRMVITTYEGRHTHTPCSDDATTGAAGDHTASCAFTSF

Some of the results follow.

The assay deals with OsWRKY34 (Oryza sativa, UniProt Q0JBA9 1-250). In words: protein-binding microarray (RPBM); PBS, 2% BSA, 51.3 ng/ul salmon testes DNA, 50 uM zinc acetate, 200 nM TF, 25 C, 1 h; high values mean tight binding. The following applies: protein: recombinant; tags: N-terminal polyhistidine and DsRed monomer fusion (pET32a); label: CyDye5-dUTP incorporated in the synthesized complementary strand; 3' TTTTT single-stranded linker to array surface; dsDNA, one strand shown. The procedure, abridged: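 Transcription factors, each fused N-terminally to a polyhistidine tag and DsRed, were expressed in E. coli BL21-CodonPlus and purified on Ni–NTA. A custom Agilent array was made double-stranded by primer extension with Cy5-dUTP and blocked with 2% BSA. It was incubated with 200 nM protein in PBS, 2% BSA, salmon testes DNA and 50 µM zinc acetate at 25 °C for 1 h, then washed. The binding signal is per-feature fluorescence intensity (arbitrary units) read on an Axon 4000B scanner.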
Regarding “GGGCTTATTTTTTTTTTTTAACTTTGTTATGCTCTAGAAACGGAGTCACCTAGTGCAG”, the binding signal is 20100 fluorescence intensity (a.u.).
Consider “TGAACACGTACAGGTCTGTACCTTTTGCCGGTACTTTGCACGGAGTCACCTAGTGCAG”, for which the binding signal was 8960 fluorescence intensity (a.u.).
Then “TCGCTTCTTGTCTTCGCAACGTATCCTAGTTAACCCAAGTCGGAGTCACCTAGTGCAG”, with 9620 fluorescence intensity (a.u.).
Consider “CACCTCAGCATTCATCCCGCTTCCTCTGCTCTCTCTGGAACGGAGTCACCTAGTGCAG”, for which the binding signal is 11100 fluorescence intensity (a.u.).
Take “AACCCTCATCTACTTCTGGCCCTCTAAGAGTTCTCCACTACGGAGTCACCTAGTGCAG”: the binding signal is 8400 fluorescence intensity (a.u.).
As for “TCACACCTCCCAATCTCGTCCACAGCATACACACGTCTACCGGAGTCACCTAGTGCAG”, the binding signal was 9320 fluorescence intensity (a.u.).
On to “GTCGTCGTCTTCTTCCGCCGCGCGGCCCGGCCGCTGCCGGCGGAGTCACCTAGTGCAG”, for which the binding signal is 8740 fluorescence intensity (a.u.).
Consider “ACATCAAAACTTTTCTACACACACAAATTTCCAACTTTTCCGGAGTCACCTAGTGCAG”, for which the binding signal was 9930 fluorescence intensity (a.u.).
As to “CATTGTCTTGCACTTTCCTAATTTACAACTGCTGCTAAAACGGAGTCACCTAGTGCAG”, the binding signal was 8450 fluorescence intensity (a.u.).
With “AATCAGCATTTTAACTAACTTTTGCGCCGACATTTTTTTTCGGAGTCACCTAGTGCAG”, the binding signal was 9600 fluorescence intensity (a.u.).
As to “CAATCACTCCGGCTCATCTCCCCGCAAGCATCTCCGTCCTCGGAGTCACCTAGTGCAG”, the binding signal is 8560 fluorescence intensity (a.u.).
Take “TTCTTGCGTTGTTTTACCTGCGTCTTGTTCTTCTTGGGAGCGGAGTCACCTAGTGCAG”: the binding signal is 9090 fluorescence intensity (a.u.).
On to “CCATCTCCATCCCCGACCACCACTTCTTCTCCGGCGAGCTCGGAGTCACCTAGTGCAG”, for which the binding signal is 8780 fluorescence intensity (a.u.).
For “GGCGCCGGCGCTAGCGCCCACGTCGGGGTTGGGGTTGGGGCGGAGTCACCTAGTGCAG”, the binding signal was 16600 fluorescence intensity (a.u.).
In the case of “TATTCCCACGATGTTGTCACTCTTCCTCGCGCGTCCACAGCGGAGTCACCTAGTGCAG”, the binding signal was 8190 fluorescence intensity (a.u.).
Consider “CGTTGCGCACGTACAGCTCACGCTCAAGTCGTACACATTACGGAGTCACCTAGTGCAG”, for which the binding signal was 9380 fluorescence intensity (a.u.).
For the sequence “GATGGAACTCCTTTTGTAACTTTCCAACTACGAGTACGAGCGGAGTCACCTAGTGCAG”, the binding signal was 8480 fluorescence intensity (a.u.).
Turning to “TATTTGATTTATATATAATGAAACATCGTCAGTTATTTTTCGGAGTCACCTAGTGCAG”, the binding signal was 8060 fluorescence intensity (a.u.).
With “TTGCTTTGTGGGAATTGGGGAGTTTTTTGTGATACGGTGGCGGAGTCACCTAGTGCAG”, the binding signal was 10300 fluorescence intensity (a.u.).
Regarding “CTGCTCCGCCGACCACCGTCAGGTCGCGACGCCGCCGATGCGGAGTCACCTAGTGCAG”, the binding signal is 8410 fluorescence intensity (a.u.).
Consider “TTCTTCTTCTTCCTCCTCCTTCGCCGCCGCCCACCGCGCCCGGAGTCACCTAGTGCAG”, for which the binding signal was 8990 fluorescence intensity (a.u.).
Then “CTCTCGGCGTTCTCAGCTGCAGCCGCCGGCGGCGAACCCGCGGAGTCACCTAGTGCAG”, with 11700 fluorescence intensity (a.u.); and “TTTTTAAAAAAAAAATTGGTAGGACCCGTCCATCTCTTCTCGGAGTCACCTAGTGCAG”, with 8210 fluorescence intensity (a.u.); and “GGGTCTGAGAGGGGAGGAGAGGTGTCGCTATCGGAGAAGACGGAGTCACCTAGTGCAG”, with 8710 fluorescence intensity (a.u.).
“TAGTGTGTACTCTTCCCTTTGGCACGTACTAGTCGATTACCGGAGTCACCTAGTGCAG”: the binding signal is 13000 fluorescence intensity (a.u.).
As to “TACTAGTCCACACATAAGCATTATTATCTTTTGTTAAATACGGAGTCACCTAGTGCAG”, the binding signal was 9200 fluorescence intensity (a.u.).
Consider “ACTGCACCACCAATCTACTCCTATTGTGCTTACTGGTTCCCGGAGTCACCTAGTGCAG”, for which the binding signal is 9780 fluorescence intensity (a.u.).
Turning to “AGTAGTTGATGAAGATTTGCCGAAAGTGCAGGGGTATTTCCGGAGTCACCTAGTGCAG”, the binding signal was 8120 fluorescence intensity (a.u.).
As to “CGGCCGAACAGGGGAGAGGAGGGGAGGGGATCCTGGTGAGCGGAGTCACCTAGTGCAG”, the binding signal was 9220 fluorescence intensity (a.u.).
For the sequence “ACAGGGTAAGTACTTCTGTTAAAGTCTTTCTTTTTTTTCCCGGAGTCACCTAGTGCAG”, the binding signal is 8980 fluorescence intensity (a.u.).
As to “GGCCGTAATTTTTTCTTTTTTTTTGACTATAGTGTCTCGACGGAGTCACCTAGTGCAG”, the binding signal was 9130 fluorescence intensity (a.u.).
With “CCTATACTACTAGTAGTAGCTTGCCCCTGCGCTTGCTTGTCGGAGTCACCTAGTGCAG”, the binding signal is 8210 fluorescence intensity (a.u.).
Regarding “CTCCTCGCTAGTTCGCCCGCCGCGCCGCCTGCGTCGATTTCGGAGTCACCTAGTGCAG”, the binding signal is 8080 fluorescence intensity (a.u.).
As for “GCTTCAATGATTTCTGATTCTGTTGCTTCTCCCTCCTTCCCGGAGTCACCTAGTGCAG”, the binding signal is 8560 fluorescence intensity (a.u.).
As to “CGTCGTCGCTAGGGGAGGCGGTGGCGCGAGGGGAGGGAAGCGGAGTCACCTAGTGCAG”, the binding signal is 9730 fluorescence intensity (a.u.).
As to “GCCATGCAAACATGCGGCCCACTCCTCTTCGCCGCATGCCCGGAGTCACCTAGTGCAG”, the binding signal was 10800 fluorescence intensity (a.u.).
On to “ATAACCGTCCACACCCCGCTCCTGCTCCCGCCACGCCATTCGGAGTCACCTAGTGCAG”, for which the binding signal is 9100 fluorescence intensity (a.u.).
Regarding “TCTGGTGCTATAAATACCCACGAACTCTTCACTCAACATTCGGAGTCACCTAGTGCAG”, the binding signal was 8500 fluorescence intensity (a.u.).
Then “CACGCGGCTCTCCACCACCACCACTACCCGCGGAATCGGACGGAGTCACCTAGTGCAG”, with 8670 fluorescence intensity (a.u.); and “GCTAGCGCTGGAATGGTCCTACTTCTTTCATTTACAACATCGGAGTCACCTAGTGCAG”, with 8690 fluorescence intensity (a.u.); and “CTCCGATTTCAAGAGAGTACACCGTTGACTGGAACTCGTACGGAGTCACCTAGTGCAG”, with 9980 fluorescence intensity (a.u.).
“TTGTGTCTTATGACTTATATTTTTATATTTGCACTAATTTCGGAGTCACCTAGTGCAG”: the binding signal was 8900 fluorescence intensity (a.u.).
